The list shows a part of the results. Most values lie at the level of the controls, where differences are scatter.
compound: CN[C@@H]1C[C@H]2O[C@@](C)([C@@H]1OC)n1c3ccccc3c3c4c(c5c6ccccc6n2c5c31)C(=O)NC4 [staurosporine]; assay: log2 fold change of tryptic peptide abundance, ligand vs vehicle (limited proteolysis) (log2 ratio); higher = more trypsin-susceptible (destabilized); conditions: ligand concentration: 20 uM; sample: mouse liver crude lysate; replicate design: treated separately

Protein sequences, listed by entry. Tags and fused reporters are not part of them. Lines headed by an entry give the natural chain unless they say otherwise; changes in a name come on top.
UniProt Q9WVS7: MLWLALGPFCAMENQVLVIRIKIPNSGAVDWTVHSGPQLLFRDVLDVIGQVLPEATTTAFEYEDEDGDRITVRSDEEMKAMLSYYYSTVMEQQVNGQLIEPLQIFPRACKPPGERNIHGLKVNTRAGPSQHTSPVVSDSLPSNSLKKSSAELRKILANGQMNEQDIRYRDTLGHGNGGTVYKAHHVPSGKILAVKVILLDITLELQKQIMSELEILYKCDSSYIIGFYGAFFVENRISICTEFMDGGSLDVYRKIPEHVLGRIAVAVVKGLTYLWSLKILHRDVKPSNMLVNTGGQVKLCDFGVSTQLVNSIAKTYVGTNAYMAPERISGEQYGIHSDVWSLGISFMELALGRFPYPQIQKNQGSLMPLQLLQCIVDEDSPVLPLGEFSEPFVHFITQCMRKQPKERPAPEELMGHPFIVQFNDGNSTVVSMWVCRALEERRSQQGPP
UniProt Q9Z0E0: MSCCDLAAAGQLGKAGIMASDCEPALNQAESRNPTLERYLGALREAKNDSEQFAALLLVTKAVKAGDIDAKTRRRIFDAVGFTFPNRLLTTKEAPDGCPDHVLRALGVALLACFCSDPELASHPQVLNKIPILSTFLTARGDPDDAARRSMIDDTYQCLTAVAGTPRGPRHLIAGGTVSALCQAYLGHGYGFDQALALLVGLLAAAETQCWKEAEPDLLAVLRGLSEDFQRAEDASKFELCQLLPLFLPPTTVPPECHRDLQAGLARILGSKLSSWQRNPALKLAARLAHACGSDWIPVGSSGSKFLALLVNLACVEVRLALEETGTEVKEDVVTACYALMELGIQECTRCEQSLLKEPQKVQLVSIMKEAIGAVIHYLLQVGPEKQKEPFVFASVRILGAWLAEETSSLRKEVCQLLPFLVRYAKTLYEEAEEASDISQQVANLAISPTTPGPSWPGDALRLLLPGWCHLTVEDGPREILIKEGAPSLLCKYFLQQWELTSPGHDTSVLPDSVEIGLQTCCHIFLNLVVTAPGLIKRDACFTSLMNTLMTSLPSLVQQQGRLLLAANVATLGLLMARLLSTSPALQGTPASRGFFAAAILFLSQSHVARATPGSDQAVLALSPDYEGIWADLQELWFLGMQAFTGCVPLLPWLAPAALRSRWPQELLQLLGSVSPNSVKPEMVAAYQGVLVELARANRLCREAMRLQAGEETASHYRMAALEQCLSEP
UniProt Q9Z277: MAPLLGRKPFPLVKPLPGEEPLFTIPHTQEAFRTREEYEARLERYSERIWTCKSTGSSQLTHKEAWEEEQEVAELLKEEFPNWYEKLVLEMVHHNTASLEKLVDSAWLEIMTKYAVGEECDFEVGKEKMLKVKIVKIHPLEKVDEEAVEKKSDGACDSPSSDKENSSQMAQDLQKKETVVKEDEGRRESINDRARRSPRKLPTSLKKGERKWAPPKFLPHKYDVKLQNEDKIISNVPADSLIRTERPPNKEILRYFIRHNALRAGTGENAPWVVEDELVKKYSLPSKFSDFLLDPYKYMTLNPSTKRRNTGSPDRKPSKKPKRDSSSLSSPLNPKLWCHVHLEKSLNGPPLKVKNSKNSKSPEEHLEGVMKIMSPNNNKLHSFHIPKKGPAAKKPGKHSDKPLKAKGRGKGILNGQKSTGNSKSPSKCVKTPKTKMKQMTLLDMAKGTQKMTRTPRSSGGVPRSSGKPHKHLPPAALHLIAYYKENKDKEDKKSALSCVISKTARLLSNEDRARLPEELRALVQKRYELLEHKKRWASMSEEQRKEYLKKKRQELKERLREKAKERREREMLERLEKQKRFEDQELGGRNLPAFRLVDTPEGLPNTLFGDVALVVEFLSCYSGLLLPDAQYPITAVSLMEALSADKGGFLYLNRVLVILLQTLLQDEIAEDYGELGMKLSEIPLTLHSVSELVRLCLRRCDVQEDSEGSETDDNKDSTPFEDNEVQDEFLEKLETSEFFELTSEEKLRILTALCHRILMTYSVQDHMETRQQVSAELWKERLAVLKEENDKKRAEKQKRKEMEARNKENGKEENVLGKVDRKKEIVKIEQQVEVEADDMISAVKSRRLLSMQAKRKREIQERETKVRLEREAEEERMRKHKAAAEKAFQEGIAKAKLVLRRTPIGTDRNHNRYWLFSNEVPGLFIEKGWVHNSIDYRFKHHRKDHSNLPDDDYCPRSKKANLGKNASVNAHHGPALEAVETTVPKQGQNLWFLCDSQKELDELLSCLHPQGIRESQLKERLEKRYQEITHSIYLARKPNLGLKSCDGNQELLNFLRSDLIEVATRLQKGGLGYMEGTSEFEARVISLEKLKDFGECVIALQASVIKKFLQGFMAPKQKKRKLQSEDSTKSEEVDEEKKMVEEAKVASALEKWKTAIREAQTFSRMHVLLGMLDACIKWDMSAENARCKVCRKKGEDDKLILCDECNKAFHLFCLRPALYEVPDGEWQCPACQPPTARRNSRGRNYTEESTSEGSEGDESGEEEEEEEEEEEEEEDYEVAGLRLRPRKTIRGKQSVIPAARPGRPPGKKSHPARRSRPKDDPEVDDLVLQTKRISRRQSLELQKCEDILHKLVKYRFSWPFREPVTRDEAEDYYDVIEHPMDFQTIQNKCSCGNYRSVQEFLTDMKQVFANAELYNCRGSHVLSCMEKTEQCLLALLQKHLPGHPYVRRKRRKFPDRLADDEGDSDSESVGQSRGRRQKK
UniProt Q9Z2E1, whole entry: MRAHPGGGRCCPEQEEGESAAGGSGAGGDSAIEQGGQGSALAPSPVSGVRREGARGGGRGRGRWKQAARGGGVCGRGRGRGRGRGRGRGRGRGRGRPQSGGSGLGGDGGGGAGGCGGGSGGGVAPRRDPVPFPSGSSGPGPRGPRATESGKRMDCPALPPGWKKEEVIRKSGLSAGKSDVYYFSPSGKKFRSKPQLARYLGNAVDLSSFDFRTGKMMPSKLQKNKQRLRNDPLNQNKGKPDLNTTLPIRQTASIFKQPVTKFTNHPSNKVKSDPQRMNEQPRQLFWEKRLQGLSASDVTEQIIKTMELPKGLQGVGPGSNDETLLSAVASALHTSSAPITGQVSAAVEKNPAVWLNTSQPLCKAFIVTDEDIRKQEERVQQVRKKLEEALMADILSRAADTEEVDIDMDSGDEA
UniProt Q9WVQ0: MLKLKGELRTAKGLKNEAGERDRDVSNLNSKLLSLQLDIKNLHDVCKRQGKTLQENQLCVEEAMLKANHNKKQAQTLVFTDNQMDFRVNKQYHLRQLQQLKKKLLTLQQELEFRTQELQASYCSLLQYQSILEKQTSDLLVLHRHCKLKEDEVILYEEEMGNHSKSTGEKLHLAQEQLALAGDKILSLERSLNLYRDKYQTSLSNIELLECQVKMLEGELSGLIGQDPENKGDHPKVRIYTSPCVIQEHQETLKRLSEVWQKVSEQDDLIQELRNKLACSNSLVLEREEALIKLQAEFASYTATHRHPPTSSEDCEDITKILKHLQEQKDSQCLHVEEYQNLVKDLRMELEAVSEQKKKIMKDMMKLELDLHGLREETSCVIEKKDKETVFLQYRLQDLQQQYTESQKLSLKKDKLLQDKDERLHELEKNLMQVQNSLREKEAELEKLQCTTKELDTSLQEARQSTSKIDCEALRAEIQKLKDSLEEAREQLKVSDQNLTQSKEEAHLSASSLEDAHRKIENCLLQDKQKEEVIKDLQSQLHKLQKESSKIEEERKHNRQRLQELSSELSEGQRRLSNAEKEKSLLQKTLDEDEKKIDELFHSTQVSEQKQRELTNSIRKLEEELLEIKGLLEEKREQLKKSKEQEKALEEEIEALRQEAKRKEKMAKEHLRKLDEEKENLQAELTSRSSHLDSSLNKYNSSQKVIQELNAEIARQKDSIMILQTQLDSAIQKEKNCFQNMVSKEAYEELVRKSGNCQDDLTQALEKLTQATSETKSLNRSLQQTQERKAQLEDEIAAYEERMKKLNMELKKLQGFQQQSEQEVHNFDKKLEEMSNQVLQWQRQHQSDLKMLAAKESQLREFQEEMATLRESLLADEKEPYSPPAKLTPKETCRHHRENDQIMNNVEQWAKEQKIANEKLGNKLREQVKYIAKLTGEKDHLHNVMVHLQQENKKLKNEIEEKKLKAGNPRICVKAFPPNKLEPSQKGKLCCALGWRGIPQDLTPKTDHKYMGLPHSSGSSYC
UniProt Q9Z224: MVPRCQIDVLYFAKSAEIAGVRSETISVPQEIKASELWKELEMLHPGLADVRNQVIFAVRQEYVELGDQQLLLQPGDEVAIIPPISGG
UniProt Q9Z0X1, whole entry: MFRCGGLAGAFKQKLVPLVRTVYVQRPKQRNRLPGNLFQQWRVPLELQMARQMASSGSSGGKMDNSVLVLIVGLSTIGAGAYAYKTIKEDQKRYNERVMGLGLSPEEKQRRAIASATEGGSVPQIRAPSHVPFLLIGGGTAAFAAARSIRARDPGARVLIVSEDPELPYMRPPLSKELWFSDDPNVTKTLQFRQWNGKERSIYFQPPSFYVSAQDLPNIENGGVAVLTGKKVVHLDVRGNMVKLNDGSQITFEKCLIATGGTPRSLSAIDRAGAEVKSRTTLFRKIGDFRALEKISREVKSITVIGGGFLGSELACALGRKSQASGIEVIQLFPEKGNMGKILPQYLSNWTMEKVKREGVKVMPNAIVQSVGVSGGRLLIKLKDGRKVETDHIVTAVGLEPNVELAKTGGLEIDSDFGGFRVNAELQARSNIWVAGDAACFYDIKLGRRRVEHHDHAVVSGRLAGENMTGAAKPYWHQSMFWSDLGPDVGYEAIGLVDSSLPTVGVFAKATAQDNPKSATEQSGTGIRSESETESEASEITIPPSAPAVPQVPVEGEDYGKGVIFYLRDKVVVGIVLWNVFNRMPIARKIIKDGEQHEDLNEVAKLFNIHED
UniProt Q9Z0X0: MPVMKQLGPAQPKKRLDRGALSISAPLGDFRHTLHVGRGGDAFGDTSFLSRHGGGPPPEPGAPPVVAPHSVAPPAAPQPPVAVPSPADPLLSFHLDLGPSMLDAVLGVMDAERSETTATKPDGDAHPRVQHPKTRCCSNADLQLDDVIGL
UniProt Q9Z172, whole entry: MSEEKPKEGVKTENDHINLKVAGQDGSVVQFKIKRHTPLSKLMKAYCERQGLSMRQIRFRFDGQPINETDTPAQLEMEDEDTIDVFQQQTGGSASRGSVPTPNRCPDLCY
UniProt Q9WVH3: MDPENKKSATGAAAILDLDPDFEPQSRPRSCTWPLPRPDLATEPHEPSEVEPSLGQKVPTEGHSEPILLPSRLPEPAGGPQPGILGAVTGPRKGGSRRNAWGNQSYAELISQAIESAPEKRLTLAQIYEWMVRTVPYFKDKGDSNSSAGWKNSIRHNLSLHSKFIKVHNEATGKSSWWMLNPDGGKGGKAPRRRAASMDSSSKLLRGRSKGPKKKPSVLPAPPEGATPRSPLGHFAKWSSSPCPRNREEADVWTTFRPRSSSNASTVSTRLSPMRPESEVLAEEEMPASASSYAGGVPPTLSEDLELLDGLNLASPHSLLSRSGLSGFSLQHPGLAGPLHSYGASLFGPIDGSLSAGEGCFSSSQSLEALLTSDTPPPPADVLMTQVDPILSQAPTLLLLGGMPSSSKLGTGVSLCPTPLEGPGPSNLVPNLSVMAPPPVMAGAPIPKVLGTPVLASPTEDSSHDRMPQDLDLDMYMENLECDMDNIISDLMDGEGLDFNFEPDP
UniProt Q9Z0M9: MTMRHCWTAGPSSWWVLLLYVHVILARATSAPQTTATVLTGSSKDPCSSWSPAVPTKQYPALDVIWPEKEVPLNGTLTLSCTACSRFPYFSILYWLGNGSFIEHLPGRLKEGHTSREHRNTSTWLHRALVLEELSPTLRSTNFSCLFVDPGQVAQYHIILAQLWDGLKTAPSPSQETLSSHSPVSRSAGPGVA
UniProt Q9Z0N2, whole entry: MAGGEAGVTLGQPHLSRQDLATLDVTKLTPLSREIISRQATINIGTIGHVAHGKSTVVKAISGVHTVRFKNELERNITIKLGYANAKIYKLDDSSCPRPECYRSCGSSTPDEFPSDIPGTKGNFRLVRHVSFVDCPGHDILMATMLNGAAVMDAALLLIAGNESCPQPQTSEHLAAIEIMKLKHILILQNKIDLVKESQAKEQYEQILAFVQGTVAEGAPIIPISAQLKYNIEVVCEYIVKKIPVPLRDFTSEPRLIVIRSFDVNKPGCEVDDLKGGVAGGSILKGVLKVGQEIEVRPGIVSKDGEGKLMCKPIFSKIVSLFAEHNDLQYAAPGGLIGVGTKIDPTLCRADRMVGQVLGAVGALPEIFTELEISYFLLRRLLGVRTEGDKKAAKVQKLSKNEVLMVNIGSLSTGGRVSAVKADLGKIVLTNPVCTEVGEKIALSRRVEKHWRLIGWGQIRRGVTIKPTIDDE
UniProt Q9Z130: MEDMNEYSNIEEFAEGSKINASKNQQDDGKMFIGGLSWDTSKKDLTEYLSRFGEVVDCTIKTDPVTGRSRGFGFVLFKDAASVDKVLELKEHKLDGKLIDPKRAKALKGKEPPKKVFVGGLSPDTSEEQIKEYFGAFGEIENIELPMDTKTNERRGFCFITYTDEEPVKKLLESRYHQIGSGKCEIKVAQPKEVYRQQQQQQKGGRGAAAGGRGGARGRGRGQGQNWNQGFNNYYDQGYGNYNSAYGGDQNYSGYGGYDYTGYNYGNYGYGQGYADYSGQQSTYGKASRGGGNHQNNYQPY

Row | Target | log2 fold change
1 | UniProt Q9Z0S3 (peptide sequence: AGATTTATAPAYRPPAAYKDNR, peptide start residue: 200) | -0.125
2 | UniProt Q9Z2X2 (peptide sequence: DHYDATAMHR, peptide start residue: 136) | 0.222
3 | UniProt Q9WVS7 (peptide sequence: YRDTLGHGNGGTVYK, peptide start residue: 168) | -0.652
4 | UniProt Q9Z0E0 (peptide sequence: GLSEDFQR, peptide start residue: 224) | -0.377
5 | UniProt Q9Z277 (peptide sequence: DSSSLSSPLNPK, peptide start residue: 324) | -0.311
6 | UniProt Q9Z2E1 (peptide sequence: GKPDLNTTLPIR, peptide start residue: 238) | 0.238
7 | UniProt Q9WVQ0 (peptide sequence: KLNMELK, peptide start residue: 805) | 0.159
8 | UniProt Q9Z224 (peptide sequence: NQVIFAVR, peptide start residue: 53) | -0.149
9 | UniProt Q9Z1T2 (peptide sequence: NSDKDIFGDACDNCR, peptide start residue: 535) | -0.263
10 | UniProt Q9Z0G7 (peptide sequence: SNCMPASAVPQK, peptide start residue: 285) | -0.464
11 | UniProt Q9Z2D8 (peptide sequence: DVFYYSPSGK, peptide start residue: 32) | -0.178
12 | UniProt Q9Z0X1 (peptide sequence: VEHHDHAVVSGR, peptide start residue: 451) | -0.48
13 | UniProt Q9Z1X2 (peptide sequence: VAGGSGSESPLLK, peptide start residue: 8) | 0.0202
14 | UniProt Q9Z131 (peptide sequence: AVEDSKPYWEAR, peptide start residue: 97) | -0.211
15 | UniProt Q9Z0X0 (peptide sequence: GGDAFGDTSFLSR, peptide start residue: 39) | 0.21
16 | UniProt Q9Z0H8 (peptide sequence: AQHEQYVAEAEEK, peptide start residue: 402) | -0.391
17 | UniProt Q9Z0W3 (peptide sequence: GFDPAQPLNVR, peptide start residue: 656) | 0.407

Quoted from the listing.
For log2 fold change, UniProt Q9WVS7 (peptide sequence: YRDTLGHGNGGTVYK, peptide start residue: 168) is listed with -0.652
For log2 fold change, UniProt Q9Z224 (peptide sequence: NQVIFAVR, peptide start residue: 53) is listed with -0.149

Next results

Row | Target | log2 fold change
18 | UniProt Q9Z172 (peptide sequence: SEEKPKEGVK, peptide start residue: 2) | -0.156
19 | UniProt Q9WVH3 (peptide sequence: KKPSVLPAPPEGATPR, peptide start residue: 214) | -0.233
20 | UniProt Q9Z0M9 (peptide sequence: ALVLEELSPTLR, peptide start residue: 128) | -0.38
21 | UniProt Q9Z211 (peptide sequence: ADKEAVVLK, peptide start residue: 36) | -0.327
22 | UniProt Q9Z0N2 (peptide sequence: AGGEAGVTLGQPHLSR, peptide start residue: 2) | -0.211
23 | UniProt Q9WVL2 (peptide sequence: SFVVETQPCMPQTLHRPLILK, peptide start residue: 315) | 0.303
24 | UniProt Q9Z0X4 (peptide sequence: EQLMGHSEWDHK, peptide start residue: 317) | -0.0834
25 | UniProt Q9WVL3 (peptide sequence: NTASHTTATAR, peptide start residue: 957) | 0.434
26 | UniProt Q9Z104 (peptide sequence: YLDEAEKEK, peptide start residue: 119) | 0.418
27 | UniProt Q9Z0R9 (peptide sequence: ALIDIVSSLKK, peptide start residue: 422) | 0.419
28 | UniProt Q9Z130 (peptide sequence: LDGKLIDPK, peptide start residue: 94) | 0.501
29 | UniProt Q9Z1B5 (peptide sequence: SFTTTIHK, peptide start residue: 185) | 0.155
30 | UniProt Q9Z0R4 (peptide sequence: QIGWFPANYVK, peptide start residue: 1117) | 0.136
31 | UniProt Q9Z2R9 (peptide sequence: IIEQEKEIEELKK, peptide start residue: 594) | -0.395
32 | UniProt Q9Z0R6 (peptide sequence: GNMELEKR, peptide start residue: 375) | -0.339
33 | UniProt Q9Z0E6 (peptide sequence: TKAEAAEAANR, peptide start residue: 492) | -0.806

Source: the supplement of paper PMC12819154, “High-throughput peptide-centric local stability assay extends protein–ligand identification to membrane proteins, tissues and bacteria” (Nature Structural & Molecular Biology, 2025)
